In US20250177527A1:
No constants are given. Whether binding was seen depends on the method and setting. Binding calls can cover weak binding; strength is not graded here.

Chains of the proteins cited; added tags and fusions are not shown. Lines headed by an entry give the natural chain unless they say otherwise; changes in a name come on top.
UniProt P56856: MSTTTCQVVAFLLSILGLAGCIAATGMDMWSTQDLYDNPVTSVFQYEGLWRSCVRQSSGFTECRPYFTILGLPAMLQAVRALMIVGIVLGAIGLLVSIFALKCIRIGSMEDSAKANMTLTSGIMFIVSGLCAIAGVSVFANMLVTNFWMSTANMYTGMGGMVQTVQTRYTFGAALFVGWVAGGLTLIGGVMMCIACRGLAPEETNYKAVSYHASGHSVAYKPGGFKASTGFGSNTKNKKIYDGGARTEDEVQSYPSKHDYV

Experiments:
human CLDN18.2 (human) [1] = molecular target: human CLDN18.2 (human) (UniProt P56856); assay: flow cytometry on SP2/0-hCLDN18.2 cells (FIG. 1)
human CLDN18.2 (human) [2] = molecular target: human CLDN18.2 (human) (UniProt P56856); assay: flow cytometry on cells (summary of Examples 1-2)
human CLDN18.2 (human) [3] = molecular target: human CLDN18.2 (human) (UniProt P56856); assay: flow cytometry on 293T-, CHO- and SP2/0-human CLDN18.2 cells (FIG. 18)
human CLDN18.2 (human) [4] = molecular target: human CLDN18.2 (human) (UniProt P56856); assay: flow cytometry on MC38-human CLDN18.2 cells (FIG. 20)

| Binder | binding (human CLDN18.2 (human) [1]) | binding (human CLDN18.2 (human) [2]) | binding (human CLDN18.2 (human) [3]) | binding (human CLDN18.2 (human) [4]) |
| --- | --- | --- | --- | --- |
| 5E6-scFv single-chain antibody (scFv) scFv: QVQLVQSGAEVKKPGASVKVSCKASGYTFTNYVMNWVRQAPGQRLEWMGYINPYNDGTKYNERFKGRVTITRDTSASTAYMELSSLRSEDTAVYYCARLYRGNAMDYWGQGTLVTVSSASTGGGGSGGGGSGGGGSDIVMTQSPDSLAVSLGERATINCKSSQSLLASGNQKNYLTWYQQKPGQPPKLLIYWASTRESGVPDRFSGSGSGTDFTLTISSLQAEDVAVYYCQNVYIYPFTFGQGTKLEIKR | binds | binds |  |  |
| 5E6 CLDN18.2 antigen-binding protein (antibody, V domains shown) VH: QVQLVQSGAEVKKPGASVKVSCKASGYTFTNYVMNWVRQAPGQRLEWMGYINPYNDGTKYNERFKGRVTITRDTSASTAYMELSSLRSEDTAVYYCARLYRGNAMDYWGQGTLVTVSS VL: DIVMTQSPDSLAVSLGERATINCKSSQSLLASGNQKNYLTWYQQKPGQPPKLLIYWASTRESGVPDRFSGSGSGTDFTLTISSLQAEDVAVYYCQNVYIYPFTFGQGTKLEIKR |  |  | binds | binds |
| 7E3 CLDN18.2 antigen-binding protein (antibody, V domains shown) VH: EVQLQQSGPELVKPGASVKMSCKASGYTFTNYIIHWVKQKPGQGLEWIGYINPYTDGPKYNEKFKGRATLTSDKSSSTAYMEFSSLTSEDSAVYYCARLNRGNAMDYWGQGTSVTVSS VL: DIVMTQSPSSLTVTVREKVTLSCKSSQSLLNSGNQKNYLTWYQQKPGQPPKLLIYWASTRESGVPDRFTGSGSGTDFTLTISSVQAEDLAVYYCQNVYIYPFTFGAGTKLELKR |  |  | binds | binds |
| 14E12 CLDN18.2 antigen-binding protein (antibody, V domains shown) VH: EVQLQESGPELVKPGASVKMSCKASGYTFTNYIIHWVKQKPGQGLEWIGYINPYTDGPKYNEKFKGRATLTSDKSSSTAYMEFSSLTSEDSAVYYCARLNRGNAMDYWGQGTSVTVSS VL: DIVMTQSPSSLSVSAGEKVTMSCKSSQSLLNNGNQKNYLAWYQQKPGQPPKLLIYGASTRESGVPDRFTGSGSGTDFALTISSVQAEDLAVYYCQNDLYYPFTFGSGTKLDIKR |  |  | binds | binds |
| Standard antibody (scFv) scFv: DIVMTQSPDSLAVSLGERATINCKSSQSLFNSGNQKNYLTWYQQKPGQPPKLLIYWASTRESGVPDRFSGSGSGTDFTLTISSLQAEDVAVYYCQNAYSFPYTFGGGTKLEIKRGGGGSGGGGSGGGGSQVQLQESGPGLIKPSQTLSLTCTVSGGSISSGYNWHWIRQPPGKGLEWIGYIHYTGSTNYNPALRSRVTISVDTSKNQFSLKLSSVTAADTAIYYCARIYNGNSFPYWGQGTTVTVSS | binds |  |  |  |
